Reference: PubChem BioAssay AID743121 (NCATS, 2013)

Screen: 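Partners whose loss is lethal together with topoisomerase I blockade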 (primary screen)
Cell system: MDA-MB-231 cells, a human breast cancer line
Reagents: single siRNA against human genes, 20 nM siRNA (0.8 pmol per well)
Duration: 120 h (drug added 48 h after transfection, read 72 h later)
Treatment: camptothecin 20 nM (about EC30) for 72 h; vehicle 0.1% DMSO in parallel plates
Measurement: 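Cell viability by ATP luminescence (CellTiter-Glo) as % of non-targeting siRNA wells, and the log2 ratio of viability without drug over viability with camptothecin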
Scale: log2 vehicle/camptothecin viability: higher = stronger sensitisation to camptothecin
Rule for the call: 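Each gene scored by redundant siRNA activity (RSA) over its individual siRNA ratios; a gene is called active at p < 0.001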
The whole screen tested about 26,000 reagents; below is a random part of them. 167 of all reagents (0.63%) were called active. 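Calls are per gene from RSA p-values that are not deposited; an individual active-marked siRNA can sensitise only weakly.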 Reagents against one gene are numbered here. Not all columns of the deposit are shown.

log2 vehicle/camptothecin viability, by target gene and reagent
NME5: #1 -0.104 inactive; #2 -0.109 inactive; #3 0.103 inactive; #4 -0.253 inactive
THBS3: #1 0.927 inactive; #2 0.237 inactive; #3 -0.519 inactive; #4 -0.294 inactive
CBX3: #1 0.442 inactive; #2 0.047 inactive; #3 -0.381 inactive; #4 -0.135 inactive
ZAP70: #1 1.19 active; #2 0.124 active; #3 0.337 active; #4 0.797 active
COL11A2: #1 0.326 inactive; #2 -0.0513 inactive; #3 -0.371 inactive
CLPP: #1 -0.679 inactive; #2 0.509 inactive; #3 -0.185 inactive; #4 -0.399 inactive
NOTCH4: #1 0.107 inactive; #2 -0.288 inactive; #3 -0.327 inactive
C6: #1 0.0283 inactive; #2 -0.404 inactive; #3 0.341 inactive; #4 0.326 inactive

Not a retest: entries from further up.
log2 vehicle/camptothecin viability, by target gene and reagent
CLPP: #4 -0.399 inactive
NOTCH4: #1 0.107 inactive; #2 -0.288 inactive; #3 -0.327 inactive
